Three molecules from publication PMC13598225, “Alternative splicing of synaptotagmin 7 regulates oligomerization and short-term synaptic plasticity” (Proceedings of the National Academy of Sciences of the …, 2026) can be followed below.

Amino acid sequences for entries named in this document (tags omitted). A change or cut given only in a name is not applied to a line headed by its entry. Residues count along the entry.
UniProt Q9R0N7: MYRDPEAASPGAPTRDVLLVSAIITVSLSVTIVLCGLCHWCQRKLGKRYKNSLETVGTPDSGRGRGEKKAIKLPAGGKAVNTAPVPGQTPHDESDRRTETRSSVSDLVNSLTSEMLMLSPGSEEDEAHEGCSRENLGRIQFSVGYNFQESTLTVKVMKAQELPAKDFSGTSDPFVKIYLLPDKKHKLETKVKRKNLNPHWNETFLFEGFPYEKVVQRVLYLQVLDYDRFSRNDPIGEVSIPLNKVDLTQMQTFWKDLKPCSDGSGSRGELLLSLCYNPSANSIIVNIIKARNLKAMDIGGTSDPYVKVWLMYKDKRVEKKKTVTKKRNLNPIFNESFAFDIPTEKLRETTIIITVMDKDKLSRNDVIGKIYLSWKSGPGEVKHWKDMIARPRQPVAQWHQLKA
α-syt7cyto immobilised for HaloTag pull-down: residues 38-403 of Q9R0N7

No constants are given. Whether binding was seen depends on the method and setting. For part of these data: Binding seen in cells or lysates may run through a third protein. Some binding calls cover weakened binding; strength is not graded here.

The target in assay [1] is α-syt7-fl-FLAG (full-length synaptotagmin 7, α splice variant, FLAG tag) (UniProt Q9R0N7). Briefly: co-IP; immunoprecipitation from rat hippocampal neurons expressing α-syt7-fl-FLAG, in the absence of cross-linkers.
In assay [2] the target is α-syt7cyto-mRuby (cytoplasmic domain of synaptotagmin 7, α splice variant, C-terminal mRuby) (UniProt Q9R0N7). Briefly: dynamic light scattering; size of protein droplets and aggregates of mRuby-tagged proteins; the instrument cannot distinguish particle sizes >1 µm; both purified.
Assay [3] deals with α-syt7cyto immobilised for HaloTag pull-down (UniProt Q9R0N7). Briefly: pull-down; HaloTag pull-down; syt7 immobilised; syt1-fl reconstituted into liposomes; Ca2+ against EGTA; both purified.

With “synaptotagmin 1 (syt1), endogenous in rat hippocampal neurons (from UniProt P21707 1-421)”, the binding entry in assay [1] was “binds”.
Turning to “α-syt7cyto-mRuby (cytoplasmic domain of synaptotagmin 7, α splice variant, C-terminal mRuby) (from UniProt Q9R0N7 38-403) (domain or fragment)”, the binding entry in assay [2] was “binds”.

B1: syt1-fl reconstituted into liposomes (full-length synaptotagmin 1) (natural protein, UniProt P21707 1-421, looked up)
chain: MVSASHPEALAAPVTTVATLVPHNATEPASPGEGKEDAFSKLKQKFMNELHKIPLPPWALIAIAIVAVLLVVTCCFCVCKKCLFKKKNKKKGKEKGGKNAINMKDVKDLGKTMKDQALKDDDAETGLTDGEEKEEPKEEEKLGKLQYSLDYDFQNNQLLVGIIQAAELPALDMGGTSDPYVKVFLLPDKKKKFETKVHRKTLNPVFNEQFTFKVPYSELGGKTLVMAVYDFDRFSKHDIIGEFKVPMNTVDFGHVTEEWRDLQSAEKEEQEKLGDICFSLRYVPTAGKLTVVILEAKNLKKMDVGGLSDPYVKIHLMQNGKRLKKKKTTIKKNTLNPYYNESFSFEVPFEQIQKVQVVVTVLDYDKIGKNDAIGKVFVGYNSTGAELRHWSDMLANPRRPIAQWHTLQVEEEVDAMLAVKK
notes: synaptotagmin 1, full length (fl); Construct and host are in SI Appendix; source: reconstituted into liposomes
With B1, the binding entry in assay [3] is “binds”.
